Data reported in the supplement of paper PMC9015667.
Where a name gives a salt, the structure may show the parent alone. The list shows a part of the results. Single values are uncertain, as repeats are few or missing.

Key:
Assay in all cases: reduction in cell viability relative to untreated/vehicle; higher = more growth inhibition
Details in all cases: 200 nM; 72 h
M229P = tested on: M229P (parental melanoma line)
M229R = tested on: M229R (matched melanoma line resistant to BRAF inhibitors)
M238P = tested on: M238P (parental melanoma line)
M238R = tested on: M238R (matched melanoma line resistant to BRAF inhibitors)
M249P = tested on: M249P (parental melanoma line)
M249R = tested on: M249R (matched melanoma line resistant to BRAF inhibitors)
UACC62P = tested on: UACC62P (parental melanoma line)
UACC62R = tested on: UACC62R (matched melanoma line resistant to BRAF inhibitors)

Measured: reduction in cell viability

CCN[C@H]1C[C@H](C)S(=O)(=O)c2sc(S(N)(=O)=O)cc21 [Dorzolamide hydrochloride]
< 0%: all assays above

COC(=O)Nc1ccc(-c2nc(N3CCOCC3)c3cnn(C4CCN(Cc5cccnc5)CC4)c3n2)cc1
0.74%: M249R
0.72%: M238P
< 0%: all other assays above

COC(=O)N[C@H](C(=O)N1CCC[C@H]1c1ncc(-c2ccc(-c3ccc(-c4cnc([C@@H]5CCCN5C(=O)[C@@H](NC(=O)OC)C(C)C)[nH]4)cc3)cc2)[nH]1)C(C)C [Daclatasvir dihydrochloride]
5.93%: M249R
8.29%: UACC62P
< 0%: all other assays above

CCN(C(=O)c1c(O)c2c(Cl)cccc2n(C)c1=O)c1ccccc1 [Laquinimod]
< 0%: all assays above

CC(C)(C)NC(=O)[C@@H]1CN(Cc2cccnc2)CCN1C[C@@H](O)C[C@@H](Cc1ccccc1)C(=O)N[C@H]1c2ccccc2C[C@H]1O [Indinavir sulfate]
1.15%: M249R
< 0%: all other assays above

c1ccc(CNc2nc(NCc3ccccc3)c3ccccc3n2)cc1
< 0%: all assays above

O=C1C[C@@H](c2ccc(O)cc2)Oc2cc(O)cc(O)c21 [Naringenin]
10.7%: M249R
< 0%: all other assays above

Cc1ccc(N(CC2=NCCN2)c2cccc(O)c2)cc1 [Phentolamine mesilate]
< 0%: all assays above

CC(=O)O[C@]1(C(C)=O)CC[C@H]2[C@@H]3C=C(C)C4=CC(=O)CC[C@]4(C)[C@H]3CC[C@@]21C [Megestrol acetate]
3.73%: M249R
< 0%: all other assays above

Cc1cc(OCCCc2c(C(=O)O)n(Cc3cccnc3)c3c(-c4c(COc5ccc(N6CCN([S+](C)(=O)[O-])CC6)cc5)nn(C)c4C)cccc23)cc(C)c1Cl
< 0%: all assays above

Clc1ccc(Nc2nnc(Cc3ccncc3)c3ccccc23)cc1 [Vatalanib dihydrochloride]
< 0%: all assays above

CC1(C)Cc2c(-c3ccccc3)c(-c3ccc(Cl)cc3)c(CC(=O)O)n2C1 [Licofelone]
< 0%: all assays above

COc1ccc([C@]2(C#N)CC[C@@H](C(=O)O)CC2)cc1OC1CCCC1 [Cilomilast]
< 0%: all assays above

C/C(=C\C(=O)Nc1ccccc1C(=O)O)c1ccc2ccccc2c1
< 0%: all assays above

CCOc1ccccc1OCCN[C@H](C)Cc1ccc(OC)c(S(N)(=O)=O)c1 [Tamsulosin hydrochloride]
< 0%: all assays above

O=C(C[C@@H]1C/C=C/CCC(=O)O[C@H](c2ccccc2)CNC1=O)NCc1ccc(Cl)cc1 [Robotnikinin]
1.31%: UACC62P
< 0%: all other assays above

CC(C)c1noc(N2CCC(COc3ccc(-c4ccc(S(C)(=O)=O)cc4)nc3)CC2)n1
< 0%: all assays above

C[C@@H]1CCN(C(=O)CC#N)C[C@@H]1N(C)c1ncnc2[nH]ccc12 [Tofacitinib]
4.72%: UACC62P
< 0%: all other assays above

COc1cc(N2CCN(C)CC2)ccc1Nc1nc(N)c(C(=O)c2c(Cl)cccc2Cl)s1
< 0%: all assays above

CCn1cc(C(=O)O)c(=O)c2cc(F)c(N3CCNCC3)cc21 [Norfloxacin]
< 0%: all assays above

Cc1[nH]c(/C=C2\C(=O)Nc3ccccc32)c(C)c1CCC(=O)O [Orantinib]
< 0%: all assays above

Nc1nc2[nH]cc(CCc3ccc(C(=O)N[C@@H](CCC(=O)O)C(=O)O)cc3)c2c(=O)[nH]1 [Pemetrexed disodium]
26.6%: UACC62R
15.3%: M249P
4.96%: M249R
< 0%: all other assays above

Cc1ccc(F)c(NC(=O)Nc2ccc(-c3cccc4[nH]nc(N)c34)cc2)c1 [Linifanib]
< 0%: all assays above

NC(CO)C(=O)NNCc1ccc(O)c(O)c1O (stereo unspecified) [Benserazide]
< 0%: all assays above

O=c1n(CCCN2CCN(c3cccc(Cl)c3)CC2)nc2ccccn12 [Trazodone hydrochloride]
< 0%: all assays above

Sorted by molecular weight (low to high): part of the list above.
O=C1C[C@@H](c2ccc(O)cc2)Oc2cc(O)cc(O)c21 [Naringenin]
10.7%: M249R
< 0%: all other assays above

Cc1[nH]c(/C=C2\C(=O)Nc3ccccc32)c(C)c1CCC(=O)O [Orantinib]
< 0%: all assays above

C[C@@H]1CCN(C(=O)CC#N)C[C@@H]1N(C)c1ncnc2[nH]ccc12 [Tofacitinib]
4.72%: UACC62P
< 0%: all other assays above

CCn1cc(C(=O)O)c(=O)c2cc(F)c(N3CCNCC3)cc21 [Norfloxacin]
< 0%: all assays above

CCN[C@H]1C[C@H](C)S(=O)(=O)c2sc(S(N)(=O)=O)cc21 [Dorzolamide hydrochloride]
< 0%: all assays above

C/C(=C\C(=O)Nc1ccccc1C(=O)O)c1ccc2ccccc2c1
< 0%: all assays above

COc1ccc([C@]2(C#N)CC[C@@H](C(=O)O)CC2)cc1OC1CCCC1 [Cilomilast]
< 0%: all assays above

Clc1ccc(Nc2nnc(Cc3ccncc3)c3ccccc23)cc1 [Vatalanib dihydrochloride]
< 0%: all assays above

CCN(C(=O)c1c(O)c2c(Cl)cccc2n(C)c1=O)c1ccccc1 [Laquinimod]
< 0%: all assays above

O=c1n(CCCN2CCN(c3cccc(Cl)c3)CC2)nc2ccccn12 [Trazodone hydrochloride]
< 0%: all assays above

Nc1nc2[nH]cc(CCc3ccc(C(=O)N[C@@H](CCC(=O)O)C(=O)O)cc3)c2c(=O)[nH]1 [Pemetrexed disodium]
26.6%: UACC62R
15.3%: M249P
4.96%: M249R
< 0%: all other assays above

Cc1cc(OCCCc2c(C(=O)O)n(Cc3cccnc3)c3c(-c4c(COc5ccc(N6CCN([S+](C)(=O)[O-])CC6)cc5)nn(C)c4C)cccc23)cc(C)c1Cl
< 0%: all assays above

Continuation:

C[C@@H](NCc1cc2ccccc2[nH]1)c1cccc2ccccc12 [Calindol]
< 0%: all assays above

CO[C@H]1/C=C/O[C@@]2(C)Oc3c(C)c(O)c4c(O)c(c5c(nc6cc(C)ccn65)c4c3C2=O)NC(=O)/C(C)=C\C=C\[C@H](C)[C@H](O)[C@@H](C)[C@@H](O)[C@@H](C)[C@H](OC(C)=O)[C@@H]1C [Rifaximin]
< 0%: all assays above

Clc1ccccc1C(c1ccccc1)(c1ccccc1)n1ccnc1 [Clotrimazole]
< 0%: all assays above

CC(C)CC(=O)Nc1n[nH]c2c1CN(C(=O)C1CCN(C)CC1)C2(C)C
22.1%: M238P
< 0%: M229R
57.9%: M249R
63.6%: UACC62R
32.4%: M249P
7.14%: M229P
24.5%: M238R
46.1%: UACC62P

CC1(C)Cc2c(sc(NC(=S)NC(=O)c3ccccc3)c2C(=O)O)CO1
< 0%: all assays above

CC1(C)O[C@@H]2C[C@H]3[C@@H]4CCC5=CC(=O)C=C[C@]5(C)[C@H]4[C@@H](O)C[C@]3(C)[C@]2(C(=O)CO)O1 [Desonide]
< 0%: all assays above

CCCc1nc(C)c2c(=O)nc(-c3cc(S(=O)(=O)N4CCN(CC)CC4)ccc3OCC)[nH]n12 [Vardenafil]
< 0%: all assays above

Cc1ccc(C(=O)Nc2cccc(C(F)(F)F)c2)cc1-c1ccc2nc(NCCN3CCOCC3)ncc2c1
45.9%: M238P
38.4%: M249R
9.21%: M229R
61.8%: UACC62P
< 0%: M238R
52.6%: M249P
22.4%: UACC62R
33.7%: M229P

O=C(O)CC[C@H]1CC[C@@](c2cc(F)ccc2F)(S(=O)(=O)c2ccc(Cl)cc2)CC1
< 0%: all assays above

N=C1S/C(=C\c2ccc(-c3ccc4c(c3)C(=O)NC4=O)o2)C(=O)N1c1ccc(Br)cc1 [Bioymifi]
6.44%: M249R
1.4%: M249P
8.03%: M238P
5.76%: UACC62P
1.38%: M238R
7.95%: UACC62R
< 0%: M229P | M229R

CNC(=O)c1nn(C)c2c1C(C)(C)Cc1cnc(Nc3ccc(N4CCN(C)CC4)cc3)nc1-2 [Milciclib]
14.6%: M238R
29.8%: M238P
4.6%: M249P
11.7%: M229R
24.8%: M249R
24.9%: UACC62P
37.4%: UACC62R
10.6%: M229P

CCc1cc(C(N)=S)ccn1 [Ethionamide]
1.91%: UACC62P
4.45%: M249P
< 0%: all other assays above

CCN(CC)CCOc1ccc(Cc2ccccc2)cc1 [Tesmilifene hydrochloride]
< 0%: all assays above

CC1Cc2ccccc2N1NC(=O)c1ccc(Cl)c(S(N)(=O)=O)c1 (stereo unspecified) [Indapamide]
< 0%: all assays above

COc1ccc(Nc2nccc(NCCO)n2)cc1 [Cardiogenol]
< 0%: all assays above

CCn1cc(C(=O)O)c(=O)c2cc(F)c(N3CCNCC3)nc21 [Enoxacin]
< 0%: all assays above

Oc1ccc([C@@H]2Oc3ccc(O)cc3[C@@H]3CCC[C@@H]32)cc1 [Erteberel]
1.88%: M229R
10%: M249R
< 0%: all other assays above
